# The full ranking holds about 33,000 sequences; the median of “E-score (-0.5 to 0.5)” is about -0.015, and the highest 2% start at about 0.3. Some of the results follow.
# Target: T1, Abf1 (UniProt P14164)
# T1 sequence: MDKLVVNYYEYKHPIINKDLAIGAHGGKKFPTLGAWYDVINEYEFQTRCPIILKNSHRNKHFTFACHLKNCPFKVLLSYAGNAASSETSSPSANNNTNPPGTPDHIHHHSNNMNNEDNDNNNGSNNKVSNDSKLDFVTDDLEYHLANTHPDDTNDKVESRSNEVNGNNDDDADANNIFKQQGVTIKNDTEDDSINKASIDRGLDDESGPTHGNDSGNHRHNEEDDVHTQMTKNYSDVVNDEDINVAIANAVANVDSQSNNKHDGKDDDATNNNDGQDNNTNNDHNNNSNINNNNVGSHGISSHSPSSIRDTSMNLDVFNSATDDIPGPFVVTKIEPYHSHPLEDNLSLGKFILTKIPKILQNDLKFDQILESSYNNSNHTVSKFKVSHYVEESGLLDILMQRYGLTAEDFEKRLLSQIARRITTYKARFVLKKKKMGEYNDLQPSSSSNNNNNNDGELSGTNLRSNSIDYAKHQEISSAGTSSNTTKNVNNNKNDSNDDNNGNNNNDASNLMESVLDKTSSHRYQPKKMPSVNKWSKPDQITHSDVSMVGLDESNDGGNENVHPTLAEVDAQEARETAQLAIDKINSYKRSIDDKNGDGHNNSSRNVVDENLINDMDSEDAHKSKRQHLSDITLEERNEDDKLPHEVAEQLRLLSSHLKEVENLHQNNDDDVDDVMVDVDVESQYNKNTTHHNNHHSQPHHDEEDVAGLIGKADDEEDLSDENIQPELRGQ
# Experiment: PBM E-score (8-mer binding enrichment) (E-score (-0.5 to 0.5)); higher = stronger / more preferred TF binding
# Settings: protein concentration: 200 nM; construct: GST-full length
# In short: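 For each ungapped eight-base word taken together with its reverse complement, the Universal PBM Analysis Suite assigned an E-score. Binding data came from GST-tagged yeast transcription factors, applied at about 100-200 nM, on universal all-10-mer Agilent arrays made double-stranded by primer extension. Fluorescent anti-GST marked bound protein, and scans were normalised with masliner.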
row,Sequence,PBM E-score
1,AGCGCGGC,-0.149
2,CCCGGGTC,-0.279
3,ATTTGGTA,0.153
4,CGATTAAA,0.0727
5,GATCTGAC,0.105
6,CTACTCTA,-0.0263
7,CTATTGAG,-0.0162
8,GATTAATC,0.0366
9,AGCGTTCC,0.0725
10,CATCCTCG,-0.127
11,ATATGCAA,0.0892
12,ATATTATG,0.249
13,GTCGCTAA,0.191
14,ACTTAATG,0.192
15,AACTATTA,0.035
16,CCAACGAG,0.0639
17,CTGGTCCC,-0.157
18,ACGGAGAT,-0.101
19,AAATTAAC,-0.0496
20,AGCCGATG,-0.1
21,ATTAGACA,0.119
22,GGGACCAC,-0.0704
23,AGGTACTG,-0.0376
24,TTTCGAAA,0.0414
25,ATCAAACA,0.0965

row,Sequence,PBM E-score
1,AATCCCAA,0.0116
2,ATATTGAT,0.2
3,CCTCGTTC,0.0231
4,TATTACGA,0.311
5,ACGCATAT,0.098
6,ACTGGCAT,-0.21
7,CAATTATG,0.0589
8,CGGGGCCA,-0.0201
9,CACACCTA,-0.0844
10,ACGCATAG,0.0376
11,CTCGGAAC,0.174
12,ATCGTGTA,0.376
13,CTGTTCTA,0.0486
14,CATGATAA,0.356
15,CGGCTCAG,-0.00996
16,TGTAGACA,-0.0107
17,CAGTCGCA,-0.142
18,ACGCATCT,0.00362
19,GCATGTCC,-0.165
20,ACCGAATC,-0.016
21,ACAAGCGC,-0.189
22,CTGCCACC,-0.256
23,CTTAAGCC,-0.0745
24,CCCAACGC,-0.172
25,ACTTCACA,0.111

row,Sequence,PBM E-score
1,CAACATAC,0.0736
2,GAGTGCGA,-0.109
3,AATTGTAC,0.145
4,ACGGCCCG,0.182
5,CAGAGCAG,-0.105
6,ACAAGAAT,0.121
7,ACTGTTTG,0.111
8,AGTATACA,0.159
9,GACTTAAA,0.0992
10,ACTCTCTC,-0.113
11,ATGCGTTG,0.0612
12,GCATCCAC,0.0454
13,GGTTTAAC,-0.0352
14,CTGGGAAC,0.18
15,ACTTTGGA,-0.00181
16,CTGTGGTA,-0.146
17,AACCTTAC,0.0623
18,GCCAGAAA,-0.0305
19,ACTGTCCG,-0.0247
20,TACAACAA,0.164
21,CGCTGAGA,0.0962
22,TGCGTACA,0.0613
23,CTATGAAA,-0.184
24,ATATAACA,0.188
25,CCATATAC,0.215

row,Sequence,PBM E-score
1,CAGCAGTC,-0.0993
2,ACACTTCT,-0.0503
3,AGGGCGGC,-0.31
4,ATTGATAG,-0.0465
5,GACACCTA,0.00716
6,AATCTACC,0.0615
7,GTCTGTTA,0.00602
8,GTTCATAA,-0.0308
9,AGCCATAT,0.139
10,ATCGTGCA,0.282
11,ATCGAGAC,-0.0469
12,CGTGTGAA,0.311
13,GCGATCTA,0.116
14,CCAAGGAG,-0.239
15,CAGGTTCA,-0.237
16,CTGGACTA,-0.186
17,AGATAATC,0.137
18,GATCCAGA,0.101
19,CAGCGATA,0.16
20,CTCTGGTC,-0.164
21,AAGGCAGA,-0.139
22,GTCTCCAC,0.0228
23,ACGTACTC,0.254
24,CCCTATAA,-0.237
25,TCCATAAA,-0.0481

# For reference, part of the list above.
row,Sequence,PBM E-score
23,ACGTACTC,0.254
24,CCCTATAA,-0.237

# Further results follow.

row,Sequence,PBM E-score
1,CGATCCTC,0.0191
2,AATGGTTA,-0.0828
3,CCACGCCG,0.0972
4,AAGATTCA,0.0295
5,AAGACTAT,-0.0973
6,CAGCCTAA,-0.131
7,AAGGGACT,-0.0432
8,GACACAGA,-0.119
9,CTTCGCGC,0.0468
10,CAACACGG,0.0441
11,ACGGACAC,0.0423
12,CTCCTCGA,-0.0241
13,CCATCGAG,0.0335
14,TATTAATA,0.00602
15,CCGCTCAG,-0.154
16,CCAACTAC,-0.035
17,AATTGAAG,-0.0559
18,AGAAGCGC,-0.0211
19,ACTAGGAG,-0.146
20,GACGCAGC,-0.202
21,AATAGGAG,-0.0982
22,TAGAAAGA,-0.196
23,CGGTCCGA,-0.071
24,AAGTGTAG,-0.00418
25,ACTCTTAC,0.0283

row,Sequence,PBM E-score
1,GCCCAGAC,-0.359
2,CCTGAAAA,-0.135
3,ATAGTGAT,0.436
4,CCGGTCGC,-0.133
5,AAAAAGTG,0.133
6,ACAAGCAC,-0.0733
7,GTGTACGA,0.337
8,GCGCCCTA,0.0153
9,AGATTTGA,0.0784
10,AGTCTTGC,0.0122
11,ATCTTTCA,0.233
12,GGGGTTCA,-0.242
13,AGTCCAAC,-0.0833
14,AATAAGTA,0.185
15,AGGGGACG,-0.074
16,CATACCCA,-0.115
17,AAGCCCTT,-0.208
18,CTGGTTCA,-0.21
19,CATTTATA,0.0769
20,AGAACAAC,-0.0587
21,CGACACTA,0.134
22,GCCGTGGA,0.195
23,ACCGACTG,-0.142
24,AACAAAAC,0.0702
25,ATAACAGA,0.156

# Shown bar-delimited: part of the list above.
row | Sequence | PBM E-score
11 | ATCTTTCA | 0.233
12 | GGGGTTCA | -0.242
13 | AGTCCAAC | -0.0833
14 | AATAAGTA | 0.185

# (continued)

row,Sequence,PBM E-score
1,TACCGGCA,0.00574
2,CAGTAGGA,-0.109
3,AAATCCTT,-0.0769
4,AGGGTTGA,0.0068
5,CACCGGTC,-0.225
6,ACGCAAGG,0.0355
7,CTACCTCA,0.0362
8,AGCGCTAG,-0.093
9,CATGTCCG,0.0742
10,CCCGGGCA,-0.249
11,CTCGAATC,-0.0489
12,AGACCGGG,-0.142
13,CCGGACGA,0.224
14,CCTTCAGA,-0.183
15,CACACGCG,0.00836
16,ATGTTAGG,0.0436
17,AGAAGTCT,-0.189
18,GAGATTCC,-0.0944
19,AATCTTCC,-0.0659
20,ACACAAGA,-0.102
21,CCATTAGA,-0.182
22,ATCTAATG,-0.0859
